Source: patent US8329736B2, “Triazole compounds that modulate HSP90 activity” (Synta Pharmaceuticals, Corp., priority 2006, dated 2012)
Some of these results come from one statement about several compounds together.

Test system: Her2
Assay: Her2 degradation IC50 (Example B, Method 2, Table 2)
Format: cell-based, human
Conditions: read-out: IC50 range of compounds of the invention for Her2 degradation

Row | SMILES | IC50 [µM]
1 | COc1cc(CNCc2ccc(Cn3c(O)nnc3-c3cc(C(C)C)c(O)cc3O)cc2)cc(OC)c1 [Compound 137, 4-(4-(4-((3,5-dimethoxybenzylamino)methyl)benzyl)-5-hydroxy-4H-1,2,4-triazol-3-yl)-6-isopropylbenzene-1,3-diol] | < 0.5
2 | COc1ccc(CCNCc2ccc(Cn3c(O)nnc3-c3cc(C(C)C)c(O)cc3O)cc2)cc1OC [Compound 140, 4-(4-(4-((3,4-dimethoxyphenethylamino)methyl)benzyl)-5-hydroxy-4H-1,2,4-triazol-3-yl)-6-isopropylbenzene-1,3-diol] | < 0.5
3 | CC(C)c1cc(-c2nnc(O)n2Cc2ccc(CNCCN3CCOCC3)cc2)c(O)cc1O [Compound 141, 4-(5-hydroxy-4-(4-((2-morpholinoethylamino)methyl)benzyl)-4H-1,2,4-triazol-3-yl)-6-isopropylbenzene-1,3-diol] | < 0.5
4 | CC(C)c1cc(-c2nnc(O)n2Cc2ccc(CNC3CCCC3)cc2)c(O)cc1O [Compound 142, 4-(4-(4-((cyclopentylamino)methyl)benzyl)-5-hydroxy-4H-1,2,4-triazol-3-yl)-6-isopropylbenzene-1,3-diol] | < 0.5
5 | CC(C)c1cc(-c2nnc(O)n2Cc2ccc(CNCc3ccco3)cc2)c(O)cc1O [Compound 144, 4-(4-(4-((furan-2-ylmethylamino)methyl)benzyl)-5-hydroxy-4H-1,2,4-triazol-3-yl)-6-isopropylbenzene-1,3-diol] | < 0.5
6 | CC(C)c1cc(-c2nnc(O)n2Cc2ccc(CNCc3ccc4c(c3)OCO4)cc2)c(O)cc1O [Compound 145, 4-(4-(4-((benzo[d][1,3]dioxol-5-ylmethylamino)methyl)benzyl)-5-hydroxy-4H-1,2,4-triazol-3-yl)-6-isopropylbenzene-1,3-diol] | < 0.5
7 | CC(C)c1cc(-c2nnc(O)n2Cc2ccco2)c(O)cc1O [Compound 147, 4-(4-(furan-2-ylmethyl)-5-hydroxy-4H-1,2,4-triazol-3-yl)-6-isopropylbenzene-1,3-diol] | < 0.5
8 | CC(C)c1cc(-c2nnc(O)n2Cc2ccc(F)cc2)c(O)cc1O [Compound 148, 4-(4-(4-fluorobenzyl)-5-hydroxy-4H-1,2,4-triazol-3-yl)-6-isopropylbenzene-1,3-diol] | < 0.5
9 | COc1ccc(CNCc2ccc(Cn3c(O)nnc3-c3cc(C(C)C)c(O)cc3O)cc2)cc1 [Compound 149, 4-(5-hydroxy-4-(4-((4-methoxybenzylamino)methyl)benzyl)-4H-1,2,4-triazol-3-yl)-6-isopropylbenzene-1,3-diol] | < 0.5
10 | COc1ccccc1CNCc1ccc(Cn2c(O)nnc2-c2cc(C(C)C)c(O)cc2O)cc1 [Compound 150, 4-(5-hydroxy-4-(4-((2-methoxybenzylamino)methyl)benzyl)-4H-1,2,4-triazol-3-yl)-6-isopropylbenzene-1,3-diol] | < 0.5
11 | CC(C)c1cc(-c2nnc(O)n2Cc2ccc(CNCc3ccncc3)cc2)c(O)cc1O [Compound 152, 4-(5-hydroxy-4-(4-((pyridin-4-ylmethylamino)methyl)benzyl)-4H-1,2,4-triazol-3-yl)-6-isopropylbenzene-1,3-diol] | < 0.5
12 | CC(C)c1cc(-c2nnc(O)n2Cc2ccc(CNCC3CCCO3)cc2)c(O)cc1O (stereo not drawn) [Compound 153, 4-(5-hydroxy-4-(4-(((tetrahydrofuran-2-yl)methylamino)methyl)benzyl)-4H-1,2,4-triazol-3-yl)-6-isopropylbenzene-1,3-diol] | < 0.5
13 | Cc1ccc(CNCc2ccc(Cn3c(O)nnc3-c3cc(C(C)C)c(O)cc3O)cc2)cc1 [Compound 155, 4-(5-hydroxy-4-(4-((4-methylbenzylamino)methyl)benzyl)-4H-1,2,4-triazol-3-yl)-6-isopropylbenzene-1,3-diol] | < 0.5
14 | CC(C)c1cc(-c2nnc(O)n2Cc2ccc(CNCc3ccc4c(c3)OCCO4)cc2)c(O)cc1O [Compound 157, 4-(4-(4-(((2,3-dihydrobenzo[b][1,4]dioxin-6-yl)methylamino)methyl)benzyl)-5-hydroxy-4H-1,2,4-triazol-3-yl)-6-isopropylbenzene-1,3-diol] | < 0.5
15 | CC(C)c1cc(-c2nnc(O)n2Cc2ccc(CNCCN3CCCCC3)cc2)c(O)cc1O [Compound 158, 4-(5-hydroxy-4-(4-((2-(piperidin-1-yl)ethylamino)methyl)benzyl)-4H-1,2,4-triazol-3-yl)-6-isopropylbenzene-1,3-diol] | > 1
16 | CC(C)c1cc(-c2nnc(O)n2Cc2ccc(CNC3CC3)cc2)c(O)cc1O [Compound 161, 4-(4-(4-((cyclopropylamino)methyl)benzyl)-5-hydroxy-4H-1,2,4-triazol-3-yl)-6-isopropylbenzene-1,3-diol] | < 0.5
17 | CC(C)c1cc(-c2nnc(O)n2Cc2ccc(CNCCOc3ccccc3)cc2)c(O)cc1O [Compound 163, 4-(5-hydroxy-4-(4-((2-phenoxyethylamino)methyl)benzyl)-4H-1,2,4-triazol-3-yl)-6-isopropylbenzene-1,3-diol] | < 0.5
18 | CC(C)c1cc(-c2nnc(O)n2Cc2ccc(CNCCC3CCCN3C)cc2)c(O)cc1O (stereo not drawn) [Compound 164, 4-(5-hydroxy-4-(4-((2-(1-methylpyrrolidin-2-yl)ethylamino)methyl)benzyl)-4H-1,2,4-triazol-3-yl)-6-isopropylbenzene-1,3-diol] | > 1

Row | SMILES | IC50 [µM]
19 | COc1ccc(Cn2c(O)nnc2-c2cc(C(C)C)c(O)cc2O)cc1OC [Compound 166, 4-(4-(3,4-dimethoxybenzyl)-5-hydroxy-4H-1,2,4-triazol-3-yl)-6-isopropylbenzene-1,3-diol] | > 1
20 | CC(C)c1cc(-c2nnc(O)n2Cc2ccc(CO)cc2)c(O)cc1O [Compound 168, 4-(5-hydroxy-4-(4-(hydroxymethyl)benzyl)-4H-1,2,4-triazol-3-yl)-6-isopropylbenzene-1,3-diol] | < 0.5
21 | CC(C)c1cc(-c2nnc(O)n2Cc2ccc(C=O)cc2)c(O)cc1O [Compound 169, 4-((3-(2,4-dihydroxy-5-isopropylphenyl)-5-hydroxy-4H-1,2,4-triazol-4-yl)methyl)benzaldehyde] | < 0.5
22 | CC(C)c1cc(-c2nnc(O)n2Cc2ccc(/C=N/N3CCOCC3)cc2)c(O)cc1O [Compound 170, (E)-4-(5-hydroxy-4-(4-((morpholinoimino)methyl)benzyl)-4H-1,2,4-triazol-3-yl)-6-isopropylbenzene-1,3-diol] | < 0.5
23 | CC(C)c1cc(-c2nnc(O)n2Cc2ccc(CN)cc2)c(O)cc1O [Compound 172, 4-(4-(4-(aminomethyl)benzyl)-5-hydroxy-4H-1,2,4-triazol-3-yl)-6-isopropylbenzene-1,3-diol] | < 0.5
24 | CC(C)c1cc(-c2nnc(O)n2Cc2ccc(CNC(=N)N)cc2)c(O)cc1O [Compound 173, 1-(4-((3-(2,4-dihydroxy-5-isopropylphenyl)-5-hydroxy-4H-1,2,4-triazol-4-yl)methyl)benzyl)guanidine] | > 1
25 | CC(C)c1cc(-c2nnc(O)n2Cc2ccc(CNCC(N)=O)cc2)c(O)cc1O [Compound 174, 2-(4-((3-(2,4-dihydroxy-5-isopropylphenyl)-5-hydroxy-4H-1,2,4-triazol-4-yl)methyl)benzylamino)acetamide] | < 0.5
26 | COc1ccc(CNCc2ccc(Cn3c(O)nnc3-c3cc(C(C)C)c(O)cc3O)cc2)cc1OC [Compound 175, 4-(4-(4-((3,4-dimethoxybenzylamino)methyl)benzyl)-5-hydroxy-4H-1,2,4-triazol-3-yl)-6-isopropylbenzene-1,3-diol] | < 0.5
27 | CC(C)c1cc(-c2nnc(O)n2Cc2ccc(CNCCC#N)cc2)c(O)cc1O [Compound 176, 3-(4-((3-(2,4-dihydroxy-5-isopropylphenyl)-5-hydroxy-4H-1,2,4-triazol-4-yl)methyl)benzylamino)propanenitrile] | < 0.5
28 | CC(C)c1cc(-c2nnc(O)n2Cc2ccc(CNCC3CC3)cc2)c(O)cc1O [Compound 177, 4-(4-(4-((cyclopropylmethylamino)methyl)benzyl)-5-hydroxy-4H-1,2,4-triazol-3-yl)-6-isopropylbenzene-1,3-diol] | < 0.5
29 | CC(C)c1cc(-c2nnc(O)n2Cc2ccc(CN(C)CCc3ccccn3)cc2)c(O)cc1O [Compound 178, 4-(5-hydroxy-4-(4-((methyl(2-(pyridin-2-yl)ethyl)amino)methyl)benzyl)-4H-1,2,4-triazol-3-yl)-6-isopropylbenzene-1,3-diol] | < 0.5
30 | CC(C)c1cc(-c2nnc(S)n2Cc2ccc(C(=O)NC3CCCC3)cc2)c(O)cc1O [Compound 180, N-cyclopentyl-4-((3-(2,4-dihydroxy-5-isopropylphenyl)-5-mercapto-4H-1,2,4-triazol-4-yl)methyl)benzamide] | > 1
31 | CC(C)c1cc(-c2nnc(O)n2Cc2ccc(CNCCc3ccccn3)cc2)c(O)cc1O [Compound 181, 4-(5-hydroxy-4-(4-((2-(pyridin-2-yl)ethylamino)methyl)benzyl)-4H-1,2,4-triazol-3-yl)-6-isopropylbenzene-1,3-diol] | < 0.5
32 | CC(C)c1cc(-c2nnc(O)n2Cc2ccc(C(C)O)cc2)c(O)cc1O (stereo not drawn) [Compound 182, 4-(5-hydroxy-4-(4-(1-hydroxyethyl)benzyl)-4H-1,2,4-triazol-3-yl)-6-isopropylbenzene-1,3-diol] | < 0.5
33 | CC(C)c1cc(-c2nnc(O)n2Cc2ccc(C(O)c3ccccc3)cc2)c(O)cc1O (stereo not drawn) [Compound 183, 4-(5-hydroxy-4-(4-(hydroxy(phenyl)methyl)benzyl)-4H-1,2,4-triazol-3-yl)-6-isopropylbenzene-1,3-diol] | < 0.5
34 | CC(C)c1cc(-c2nnc(O)n2Cc2ccccc2)c(O)cc1O [Compound 184, 4-(4-benzyl-5-hydroxy-4H-1,2,4-triazol-3-yl)-6-isopropylbenzene-1,3-diol] | < 0.5
35 | COC(=O)CNCc1ccc(Cn2c(O)nnc2-c2cc(C(C)C)c(O)cc2O)cc1 [Compound 185, methyl 2-(4-((3-(2,4-dihydroxy-5-isopropylphenyl)-5-hydroxy-4H-1,2,4-triazol-4-yl)methyl)benzylamino)acetate] | < 0.5
36 | CC(C)c1cc(-c2nnc(O)n2Cc2ccc(CNCC#N)cc2)c(O)cc1O [Compound 186, 2-(4-((3-(2,4-dihydroxy-5-isopropylphenyl)-5-hydroxy-4H-1,2,4-triazol-4-yl)methyl)benzylamino)acetonitrile] | < 0.5
